Results of single-concentration screens

Chains of the proteins cited; added tags and fusions are not shown. Residues count along the entry.
UniProt A4I591, 1-473: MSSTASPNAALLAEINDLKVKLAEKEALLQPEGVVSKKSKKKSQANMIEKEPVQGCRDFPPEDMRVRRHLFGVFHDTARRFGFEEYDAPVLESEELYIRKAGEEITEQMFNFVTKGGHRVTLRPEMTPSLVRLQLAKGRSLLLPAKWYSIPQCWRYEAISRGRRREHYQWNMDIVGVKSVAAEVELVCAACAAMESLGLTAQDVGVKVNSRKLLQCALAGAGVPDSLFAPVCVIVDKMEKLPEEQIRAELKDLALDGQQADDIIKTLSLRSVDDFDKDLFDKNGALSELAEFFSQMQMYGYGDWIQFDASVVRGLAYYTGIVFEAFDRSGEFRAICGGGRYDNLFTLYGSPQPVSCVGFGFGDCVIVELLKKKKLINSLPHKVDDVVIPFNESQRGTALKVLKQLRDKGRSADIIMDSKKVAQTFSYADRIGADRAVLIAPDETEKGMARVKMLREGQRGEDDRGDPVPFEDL
UniProt P9WFT3, whole entry: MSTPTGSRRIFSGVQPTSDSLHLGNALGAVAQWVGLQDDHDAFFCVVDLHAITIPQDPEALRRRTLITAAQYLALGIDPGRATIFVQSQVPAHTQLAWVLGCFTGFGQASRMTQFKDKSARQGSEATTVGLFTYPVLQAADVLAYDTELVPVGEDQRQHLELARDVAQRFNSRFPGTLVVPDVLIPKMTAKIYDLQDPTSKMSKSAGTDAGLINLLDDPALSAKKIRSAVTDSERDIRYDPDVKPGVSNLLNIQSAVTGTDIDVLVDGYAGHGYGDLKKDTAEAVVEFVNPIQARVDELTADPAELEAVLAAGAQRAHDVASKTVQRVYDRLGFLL

Measurements from “University of Dundee, Small-Polar-MMV Screening Library” (2021), ChEMBL document CHEMBL3988442.

LiHisRS: 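Histidine-tRNA ligase, Leishmania infantum (UniProt A4I591). Enzyme assay of histidyl-tRNA synthetase; the read-out is not stated. Compounds at 30 µM. The record gives no direction; compounds that gave an IC50 in retests scored well above the rest, so higher reads as stronger inhibition. The assay is labelled LdHisRS but filed under L. infantum. About 69,000 compounds were tested under these conditions; 0.6% (about 410) showed 50% or more at least once.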
MtTrpRS: 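Tryptophan-tRNA ligase, Mycobacterium tuberculosis (UniProt P9WFT3). Enzyme assay of tryptophanyl-tRNA synthetase; the read-out is not stated. Concentration: 10 µM. Higher most likely means stronger inhibition; the record gives no direction and few retests gave an IC50. About 65,000 compounds were tested under these conditions; 0.098% (about 64) showed 50% or more at least once.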

Each number is a percent effect as filed. The controls that fix the scale are not given in the record; negative values are as filed. The compounds are a random part of those screened. A dash means the value is not listed here; it may have been measured.

| # | Compound | LiHisRS | MtTrpRS |
|---|---|---|---|
| 1 | `CC(C)OCCNC(=O)C1CCC(=O)N(C2CCCC2)C1` (stereo not shown) | 15.15 | -0.2018 |
| 2 | `CN(CCCc1ccccc1)C(=O)c1cn2c(n1)CNCC2` | 25.53 | -2.475 |
| 3 | `CC(=O)N1CCN(Cc2ccc(F)c(C(F)(F)F)c2)CC(O)C1` (stereo not shown) | 10.83 | -1.737 |
| 4 | `COc1c(CNCc2ccccc2-n2ccnc2)c(C)nn1C` | 16.67 | 8.992 |
| 5 | `CCn1c(C)nnc1SCCNc1nc(C)nc2c1cnn2C` | 10.83 | -1.881 |
| 6 | `Cc1nc(CN2CCO[C@H]3[C@H](OCC(=O)N(C)C)CC[C@@H]32)cs1` | -9.735 | -4.774 |
| 7 | `c1ccc(CCc2n[nH]c(C3CCC3)n2)cc1` | 26.23 | 1.708 |
| 8 | `Cc1csc2c(C3CCCN(C(=O)CCCn4cncn4)C3)nc(C)n12` (stereo not shown) | 2.857 | -4.581 |
| 9 | `c1ccc(Cn2cc3c(n2)C(CNCc2ccco2)OCC3)nc1` (stereo not shown) | 11.54 | -1.313 |
| 10 | `Cc1nc(NC(=O)N(C)Cc2ccsc2)nn1C` | 7.292 | 9.135 |
| 11 | `Brc1ccccc1-c1nnc(CNCCn2cccn2)o1` | 6.78 | 15.47 |
| 12 | `Cn1c(-c2ccccc2Cl)nc2cc(C(=O)NCC3(C)COC3)cnc21` | 9.836 | 10.47 |
| 13 | `CO[C@@H]1CN(c2ccccc2)S(=O)(=O)[C@@]12CCN(C(C)=O)C2` | 6.122 | - |
| 14 | `COCCOc1ncccc1CNC(=O)N1CCCCCC1` | 17.58 | 2.649 |
| 15 | `O=C(c1ccnnc1)N1CC2(CCN(c3ncccn3)C2)C1` | 14 | -0.9149 |
| 16 | `O=C(Nc1ccccc1F)C1CSCN1C(=O)CCc1ccco1` (stereo not shown) | 16.87 | -3.451 |
| 17 | `Cc1ccc(NC(=O)CCC2CC2)cc1N1CCOC1=O` | 10.53 | -1.574 |
| 18 | `CCN(Cc1ccoc1)Cc1nc(COC)no1` | 14.75 | 1.26 |
| 19 | `CC(=O)N1CCC2(CC1)c1ncc(-c3ccccc3)n1CCN2C` | 11.82 | - |
| 20 | `CC(C)(C)OC(=O)N1CCN(c2ccc(F)cc2)CC1C(=O)O` (stereo not shown) | 7.042 | -1.427 |
| 21 | `CC(C)n1ccnc1CN1CCCN(C(=O)c2cc(Cl)c[nH]2)CC1` | -6.383 | -6.607 |
| 22 | `CC(CN1CCOCC1)NC(=O)NCc1ccoc1` (stereo not shown) | 16.96 | 5.72 |
| 23 | `c1ccc(CN2CCC3(CC2)CN(c2ccccn2)CCO3)nc1` | 31.51 | 0.241 |
| 24 | `CCc1ccc(S(=O)(=O)Nc2cc(OC)c(OC)cc2C(=O)O)s1` | 10.61 | -0.4873 |
| 25 | `c1csc(CCNC2CCc3ncnn3C2)c1` (stereo not shown) | 27.27 | 3.193 |
| 26 | `O=C(NC1COC2(CCN(Cc3cccs3)CC2)C1)c1ccccn1` (stereo not shown) | 20.35 | -3.108 |
| 27 | `CN(C)CC1(O)CCCN(c2noc(-c3ccccc3)n2)CC1` (stereo not shown) | 27.4 | 3.866 |
| 28 | `CN(CCCc1cnn(C)c1)C(=O)Nc1cccc2[nH]ncc12` | 18.32 | -4.335 |
| 29 | `CC(=O)N(Cc1ncc(C)o1)C1CCN(CCNC2CCCCC2)C1` (stereo not shown) | -1.887 | -0.1676 |
| 30 | `O=C(c1cscn1)N1CCc2ncnc(-c3cccnc3)c2CC1` | 7.547 | - |
| 31 | `CCOCCOC(C)C(=O)NCc1ccc(N2CCCCC2)cc1` (stereo not shown) | -6.25 | -5.822 |
| 32 | `CC(C)C(=O)N1CCC2(CCN2CC2CC2)C1` (stereo not shown) | 17.95 | -2.327 |
| 33 | `CS(=O)(=O)N1CCC2(CCCN(CCCc3ccccc3)C2=O)C1` (stereo not shown) | 17.81 | -1.044 |
| 34 | `O=C(C1CCCO1)N1CCC(n2cc(-c3ccsc3)nn2)CC1` (stereo not shown) | 15.5 | -0.5747 |
| 35 | `CC(=O)N1CCOC2(CCCN(Cc3ccc(Cl)c(C(F)(F)F)c3)C2)C1` (stereo not shown) | 28.57 | 1.139 |
| 36 | `CC(=O)N1CCC(C(=O)N2CCOC(CC3CCCCC3)C2)CC1` (stereo not shown) | 11.11 | 0.8258 |
| 37 | `Cc1nc(C(C)(C)NC(=O)Nc2ccncc2)no1` | 26.03 | -3.439 |
| 38 | `c1cnc(NCCCOC2CCOCC2)nc1` | 5.479 | -4.681 |
| 39 | `Cc1cc(-c2ccc(C(=O)O)cc2)nc(C2CCN(C(C)C)CC2)n1` | 7.292 | - |
| 40 | `CC(C)c1nc2n(n1)CC(NCc1ccncc1)CC2` (stereo not shown) | 2.857 | -0.5297 |
| 41 | `Cc1noc(C)c1CNC(=O)N1CCC(CO)CC1` | 11.43 | -0.5757 |
| 42 | `COC(C)Cc1nc(-c2cnn3c(C)cc(C)nc23)no1` (stereo not shown) | -12.35 | -1.928 |
| 43 | `Cc1nc2c(c(NCc3cc4ccccc4s3)n1)CCNCC2` | 5.128 | -2.328 |
| 44 | `CC(C)Oc1cccc(CN2CCC(c3n[nH]c4ncccc34)CC2)c1` | 13.54 | - |
| 45 | `C[S+]([O-])c1nncn1CCCc1ccc(Cl)cc1` (stereo not shown) | -6.452 | -1.923 |
| 46 | `CN1CCCC[C@@H]2[C@H]1[C@@H](c1ccccc1)CCN2C(=O)c1cnccn1` | 25 | 0.2508 |
| 47 | `CC(C)(C)c1nc(CN2CCCN(Cc3cccs3)CC2)no1` | 38.46 | 6.526 |
| 48 | `Cc1ccc(S(=O)(=O)Nc2ccc(-n3ccnc3C)nc2)cc1N(C)C` | 31.33 | -1.098 |
| 49 | `Cn1cnc(S(=O)(=O)N2C[C@@H]3CC[C@H](C2)N(Cc2ccccn2)C3)c1` | 12.39 | -0.5442 |
| 50 | `CC(C)c1nnc(CCC(=O)N2CCCC(c3cnccn3)C2)o1` (stereo not shown) | 12.77 | -6.657 |
| 51 | `Cc1c(S(=O)(=O)N2CCCC2c2nnc(-c3ccsc3)o2)cnn1C` (stereo not shown) | 1.439 | -5.599 |
| 52 | `CC(C)C(C)N(C)Cc1nnc(-c2ccco2)o1` (stereo not shown) | -1.075 | -2.004 |

For reference, 3 entries once more:

Compound	LiHisRS	MtTrpRS
Cc1noc(C)c1CNC(=O)N1CCC(CO)CC1	11.43	-0.5757
CCOCCOC(C)C(=O)NCc1ccc(N2CCCCC2)cc1 (stereo not shown)	-6.25	-5.822
c1cnc(NCCCOC2CCOCC2)nc1	5.479	-4.681